HELM strings list residues between dots; [ac] is acetyl, [am] amide, other brackets name non-standard units.
Assay: general procedure: Boc solid-phase peptide synthesis; DCC (DCC/1-hydroxybenzotriazole for the dipeptide coupling)
Conditions: whole synthesis, triacetate

For “PEPTIDE1{A.G.C.K.[2-MeAla].F.F.W.K.T.F.T.S.C}$PEPTIDE1,PEPTIDE1,3:R3-14:R3$$$V2.0”, the difficulty met was “Due to incomplete coupling the coupling of t-Boc-2-methylalanine was repeated twice”.
